Laboratory results published in US20140336113A1.
These are yes or no findings as the source states them, for the method shown. Binding seen in cells or lysates may run through a third protein. Some entries that bind do so weakly or less than the wild type. For some assays here: Tags and fused reporters may be left off the sequences shown.

Protein sequences, listed by entry. Tags and fused reporters are not part of them.
UniProt Q14974: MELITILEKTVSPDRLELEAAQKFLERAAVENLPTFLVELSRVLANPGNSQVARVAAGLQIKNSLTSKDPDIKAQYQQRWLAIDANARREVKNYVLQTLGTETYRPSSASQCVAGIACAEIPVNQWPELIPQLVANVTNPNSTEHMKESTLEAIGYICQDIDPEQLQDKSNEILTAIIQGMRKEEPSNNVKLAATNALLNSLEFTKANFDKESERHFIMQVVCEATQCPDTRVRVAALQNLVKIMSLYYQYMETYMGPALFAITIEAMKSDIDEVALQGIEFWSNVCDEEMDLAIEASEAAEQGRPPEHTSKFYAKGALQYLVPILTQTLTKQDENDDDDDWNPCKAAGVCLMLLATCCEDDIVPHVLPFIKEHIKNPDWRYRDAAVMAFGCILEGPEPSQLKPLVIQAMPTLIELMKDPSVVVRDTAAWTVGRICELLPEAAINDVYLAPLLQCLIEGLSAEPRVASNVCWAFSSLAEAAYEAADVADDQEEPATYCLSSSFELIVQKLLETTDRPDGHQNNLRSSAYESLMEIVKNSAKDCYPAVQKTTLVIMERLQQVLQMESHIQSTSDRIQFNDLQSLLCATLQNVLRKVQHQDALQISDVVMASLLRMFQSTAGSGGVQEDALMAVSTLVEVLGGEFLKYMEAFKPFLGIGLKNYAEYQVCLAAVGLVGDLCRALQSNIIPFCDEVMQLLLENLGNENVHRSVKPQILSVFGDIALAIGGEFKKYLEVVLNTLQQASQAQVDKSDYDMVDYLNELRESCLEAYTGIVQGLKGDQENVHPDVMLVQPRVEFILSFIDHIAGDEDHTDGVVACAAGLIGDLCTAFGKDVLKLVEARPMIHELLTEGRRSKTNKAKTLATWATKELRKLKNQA
UniProt P52294: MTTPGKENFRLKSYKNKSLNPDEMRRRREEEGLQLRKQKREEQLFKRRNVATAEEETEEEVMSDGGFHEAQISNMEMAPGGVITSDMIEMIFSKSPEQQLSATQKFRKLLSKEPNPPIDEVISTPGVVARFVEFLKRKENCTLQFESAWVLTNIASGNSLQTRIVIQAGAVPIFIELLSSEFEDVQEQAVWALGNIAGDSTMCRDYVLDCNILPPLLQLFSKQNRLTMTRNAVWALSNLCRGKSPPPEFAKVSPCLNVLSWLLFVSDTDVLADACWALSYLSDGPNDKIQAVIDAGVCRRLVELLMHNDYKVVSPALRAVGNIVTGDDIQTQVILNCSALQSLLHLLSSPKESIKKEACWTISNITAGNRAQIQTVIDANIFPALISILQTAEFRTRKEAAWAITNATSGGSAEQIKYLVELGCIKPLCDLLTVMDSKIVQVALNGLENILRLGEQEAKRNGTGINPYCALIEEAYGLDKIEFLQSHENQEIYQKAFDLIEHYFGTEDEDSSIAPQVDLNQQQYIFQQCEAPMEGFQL

Columns and labels:
[1] = target: importin beta (human) (UniProt Q14974); assay: pull-down of biotinylated peptide modules from cell lysate, immunoblot
[2] = target: importin beta (human) (UniProt Q14974); assay: pull-down from human HepG2 cell extract, immunoblot
[3] = target: importin beta (human) (UniProt Q14974); assay: pull-down from human Jurkat T cell lysate, immunoblot
[4] = target: importin alpha 5 (human) (UniProt P52294); assay: as above

binding [1]	binding [2]	binding [3]	binding [4]	Binder
binds				AVLLALLAP (peptide, not shown: small tags and cut ends, biotin added to the amino terminus) [biotinylated SSHR-2 peptide with solubility tag]
	binds	binds	binds	AAVALLPAVLLALLAPVQRKRQKLMP (biotin added to the amino terminus) [biotinylated SN50 peptide]
			binds	VQRKRQKLMP (biotin added to the amino terminus) [biotinylated N50 peptide]
